# Experimental data as given in PubChem BioAssay AID256 (DTP/NCI, 2004).
# The list does not hold the whole screen: it is rich in T/C values a quarter to a half above the control, in often repeated tests (any T/C) and in doses without a T/C. Other doses and runs of a compound stand elsewhere. T/C gives the treated animals as a percentage of the vehicle group. Some entries give survivors of the animals treated and no T/C: the source files T/C as zero there, which appears to mark a toxic dose or a test without result, not a measured value. Some doses without a T/C left all or most animals alive at the check, yet need not have been tolerated: the source hardly ever lists a survival T/C far under the control, and the zero likely stands for such cases as well. Survivors were counted at the toxicity check, usually on the fifth day, unless a day is given; later deaths do not show. Schedule codes are those of the source, taken here to give the interval after Q, in days (D) or hours (H), and the number of doses after X. Some entries were tested several times; the values are given in rising order. Some schedules carry Z or #; the key to these is not given. For survival time, this PubChem deposit counts one and a half times the control or more as active, and values a quarter to a half above the control carry no call in these data; other NCI protocols may use other cut-offs. Marks such as (2×) stand for listed records that agree.
# Tested on: CD2F1 mice, L1210 leukemia ip, survival T/C
# Test: NCI In Vivo Anticancer Drug Screen. Data for tumor model L1210 Leukemia (intraperitoneal) in CD2F1 (CDF1) mice
# Conditions: higher T/C = longer survival
# In short: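 Ratio T/C, where T is the treated-group value and C the vehicle-dosed control value, from mice implanted with a transplantable tumor.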
# [1] = T/C endpoint: mean survival time, dose: 100.0 mg/kg/injection, schedule: Q04DX003 (ip), vehicle: other
# [2] = T/C endpoint: mean survival time, dose: 200.0 mg/kg/injection, schedule: Q04DX003 (ip), vehicle: saline sonified
# [3] = T/C endpoint: mean survival time, dose: 400.0 mg/kg/injection, schedule: Q04DX003 (ip), vehicle: saline sonified
# [4] = T/C endpoint: mean survival time, dose: 400.0 mg/kg/injection, schedule: Q01DX001 (ip), vehicle: saline with Tween-80
# [5] = T/C endpoint: mean survival time, dose: 200.0 mg/kg/injection, schedule: Q01DX009 (ip), vehicle: saline with Tween-80
# [6] = T/C endpoint: mean survival time, dose: 400.0 mg/kg/injection, schedule: Q04DX003 (ip), vehicle: saline with Tween-80
# [7] = T/C endpoint: mean survival time, dose: 400.0 mg/kg/injection, schedule: Q01DX001 (ip), vehicle: saline
# [8] = T/C endpoint: mean survival time, dose: 400.0 mg/kg/injection, schedule: Q01DX009 (ip), vehicle: Klucel (hydroxypropylcellulose) (HPC)
compound,measurement,setting,value
CC(=O)OCC1OC(OC(C)=O)C(NC(=O)N(CCSCCCl)N=O)C(OC(C)=O)C1OC(C)=O (configuration not stated),survivor count,"T/C endpoint: mean survival time, dose: 12.5 mg/kg/injection, schedule: Q01DX001 (ip), vehicle: distilled water + Tween-80",3 of 6
same,survivor count,"T/C endpoint: mean survival time, dose: 25.0 mg/kg/injection, schedule: Q01DX001 (ip), vehicle: distilled water + Tween-80",4 of 6
same,survivor count,"T/C endpoint: mean survival time, dose: 50.0 mg/kg/injection, schedule: Q01DX001 (ip), vehicle: distilled water + Tween-80",0 of 6
same,survivor count,"T/C endpoint: mean survival time, dose: 100.0 mg/kg/injection, schedule: Q01DX001 (ip), vehicle: distilled water + Tween-80",0 of 6
Cc1c(C)c(O)c(Br)c(C)c1O (tested in a mixture with another compound),survivor count,[1],2 of 6
O=C1OCC/C1=C/c1cccc(O)c1,survivor count,"T/C endpoint: mean survival time, dose: 12.5 mg/kg/injection, schedule: Q04DX002 (ip), vehicle: Klucel (hydroxypropylcellulose) (HPC)",3 of 3
CN1CCc2c3n(c4ccccc24)C(=O)CCC31 (configuration not stated),survivor count,"T/C endpoint: mean survival time, dose: 100.0 mg/kg/injection, schedule: Q04DX003 (ip), vehicle: saline sonified",1 of 6
same,survivor count,[2],0 of 6
same,survivor count,[3],0 of 6
CN(C)C/C(=C\c1ccccc1)C(=O)c1ccccc1,survivor count,[1],5 of 6
O=c1[nH]ccc(=S)[nH]1,survivor count,[4],6 of 6
[CH3][Pb]([CH3])([CH3])[O]C(=O)CCl,survivor count,"T/C endpoint: mean survival time, dose: 6.25 mg/kg/injection, schedule: Q01DX009 (ip), vehicle: saline",5 of 6
same,survivor count,"T/C endpoint: mean survival time, dose: 12.5 mg/kg/injection, schedule: Q01DX009 (ip), vehicle: saline",3 of 6
same,survivor count,"T/C endpoint: mean survival time, dose: 25.0 mg/kg/injection, schedule: Q01DX009 (ip), vehicle: saline",0 of 6
CN(C)C=Nc1cccc2[nH]c3ccccc3c12,survivor count,[5],1 of 6
same,survivor count,[4],1 of 6
O=C(Cn1cc[n+](CC(=O)c2ccccc2)c1)c1ccccc1,survivor count,"T/C endpoint: mean survival time, dose: 200.0 mg/kg/injection, schedule: Q04DX003 (ip), vehicle: saline with Tween-80",3 of 6
same,survivor count,[6],1 of 6
COc1ccc(CC(N)C(=O)OCc2ccccc2)cc1N(CCCl)CCCl (configuration not stated),T/C,"T/C endpoint: mean survival time, dose: 0.7 mg/kg/injection, schedule: Q01DX009 (ip), vehicle: saline",130 % of control
same,T/C,"T/C endpoint: mean survival time, dose: 1.5 mg/kg/injection, schedule: Q01DX009 (ip), vehicle: saline",144 % of control
COC(=O)C(F)C(Br)C(=O)OC (configuration not stated),survivor count,"T/C endpoint: mean survival time, dose: 100.0 mg/kg/injection, schedule: Q01DX009 (ip), vehicle: saline with Tween-80",2 of 6
CC1CN(Cc2ccccc2O)CC(C)N1 (configuration not stated),survivor count,"T/C endpoint: mean survival time, dose: 200.0 mg/kg/injection, schedule: Q01DX005 (ip), vehicle: water",2 of 6
same,survivor count,"T/C endpoint: mean survival time, dose: 400.0 mg/kg/injection, schedule: Q01DX005 (ip), vehicle: water",1 of 6
Brc1ccc2c(c1)C(Br)c1ccccc1-2 (configuration not stated),survivor count,[6],5 of 6
O=C(Nc1cccc(Cl)c1)Nc1ccccc1Cl,survivor count,"T/C endpoint: mean survival time, dose: 100.0 mg/kg/injection, schedule: Q04DX003 (ip), vehicle: saline with Tween-80",6 of 6
COC12C(COC(N)=O)C3=C(C(=O)C(C)=C(NC(C)C)C3=O)N1CC1NC12 (configuration not stated),T/C,"T/C endpoint: mean survival time, dose: 3.0 mg/kg/injection, schedule: Q01DX001 (ip), vehicle: water","96, 98, 108, 147 % of control"
same,T/C,"T/C endpoint: mean survival time, dose: 6.0 mg/kg/injection, schedule: Q01DX001 (ip), vehicle: water","100, 102 (2×), 183 % of control"
same,T/C,"T/C endpoint: mean survival time, dose: 12.0 mg/kg/injection, schedule: Q01DX001 (ip), vehicle: water","109, 114, 120, 232 % of control"
same,T/C,"T/C endpoint: mean survival time, dose: 24.0 mg/kg/injection, schedule: Q01DX001 (ip), vehicle: water","100, 120, 123, 129 % of control"
same,survivor count,"T/C endpoint: mean survival time, dose: 48.0 mg/kg/injection, schedule: Q01DX001 (ip), vehicle: water",3 of 6 and 6 of 6
O=[N+]([O-])C(Br)(CO)CO,survivor count,"T/C endpoint: mean survival time, dose: 37.5 mg/kg/injection, schedule: Q01DX001 (ip), vehicle: saline",0 of 6
same,survivor count,"T/C endpoint: mean survival time, dose: 75.0 mg/kg/injection, schedule: Q01DX001 (ip), vehicle: saline",0 of 6
CCc1nc(N)nc(N)c1-c1ccc(Cl)c(N=[N+]=[N-])c1,T/C,"T/C endpoint: median survival time, dose: 50.0 mg/kg/injection, schedule: Q01DX009 (ip), vehicle: distilled water + Tween-80",130 % of control
same,T/C,"T/C endpoint: median survival time, dose: 200.0 mg/kg/injection, schedule: Q01DX009 (ip), vehicle: distilled water + Tween-80",141 % of control
same,survivor count,"T/C endpoint: median survival time, dose: 400.0 mg/kg/injection, schedule: Q01DX009 (ip), vehicle: distilled water + Tween-80",2 of 6
CC1(C)C=Cc2ccccc21,survivor count,[5],2 of 6
Nc1ncnc2c1ncn2C1OC(COCc2ccccc2)C(OCc2ccccc2)C1OCc1ccccc1 (configuration not stated),survivor count,"T/C endpoint: mean survival time, dose: 40.0 mg/kg/injection, schedule: Q01DX Z (ip), vehicle: saline",6 of 6
COc1cc2ccc(/C=N/NC(N)=S)cc2cc1OC,survivor count,"T/C endpoint: mean survival time, dose: 400.0 mg/kg/injection, schedule: Q01DX009 (ip), vehicle: water",2 of 6
CCOC(=O)Nc1cc(Nc2ccccc2)c(N)c(N)n1,survivor count,[7],0 of 6
CN(C)N=Nc1ccc([N+](=O)[O-])cc1,T/C,"T/C endpoint: mean survival time, dose: 266.0 mg/kg/injection, schedule: Q01DX009 (ip), vehicle: Klucel (hydroxypropylcellulose) (HPC)",125 % of control
same,survivor count,[8],5 of 6 and 6 of 6
C=C1C(O)C2(O)OCC34C(CC5C(C)=CC(=O)C(O)C5(C)C23)OC(=O)C(OC(=O)C/C=C(\C)CCCCC)C14 (configuration not stated),T/C,"T/C endpoint: median survival time, dose: 4.0 mg/kg/injection, schedule: Q01DX005 (ip), vehicle: saline + alcohol",125 and 132 % of control
same,T/C,"T/C endpoint: median survival time, dose: 8.0 mg/kg/injection, schedule: Q01DX005 (ip), vehicle: saline + alcohol",125 % of control
same,survivor count,"T/C endpoint: median survival time, dose: 16.0 mg/kg/injection, schedule: Q01DX005 (ip), vehicle: saline + alcohol",0 of 6 and 5 of 6
same,survivor count,"T/C endpoint: median survival time, dose: 32.0 mg/kg/injection, schedule: Q01DX005 (ip), vehicle: saline + alcohol",0 of 6
same,survivor count,"T/C endpoint: median survival time, dose: 64.0 mg/kg/injection, schedule: Q01DX005 (ip), vehicle: saline + alcohol",0 of 6
CCN(CC)CCNc1ccc(C)c2sc3ccccc3c(=O)c12,T/C,"T/C endpoint: mean survival time, dose: 50.0 mg/kg/injection, schedule: Q01DX007 (ip), vehicle: saline",128 % of control
same,T/C,"T/C endpoint: mean survival time, dose: 50.0 mg/kg/injection, schedule: Q01DX009 (ip), vehicle: saline",136 % of control
same,T/C,"T/C endpoint: mean survival time, dose: 60.0 mg/kg/injection, schedule: Q01DX005 (ip), vehicle: water",137 % of control
same,T/C,"T/C endpoint: mean survival time, dose: 100.0 mg/kg/injection, schedule: Q03DX003 (ip), vehicle: saline",125 % of control
same,T/C,"T/C endpoint: mean survival time, dose: 100.0 mg/kg/injection, schedule: Q04DX003 (ip), vehicle: saline",132 % of control
same,T/C,"T/C endpoint: median survival time, dose: 25.0 mg/kg/injection, schedule: Q01DX009 (ip), vehicle: water",132 % of control
same,T/C,"T/C endpoint: median survival time, dose: 50.0 mg/kg/injection, schedule: Q01DX009 (ip), vehicle: saline with Tween-80",125 % of control
same,T/C,"T/C endpoint: median survival time, dose: 50.0 mg/kg/injection, schedule: Q01DX009 (ip), vehicle: saline","137, 144, 146 % of control"
same,survivor count,"T/C endpoint: median survival time, dose: 200.0 mg/kg/injection, schedule: Q01DX009 (ip), vehicle: saline","5 of 6, 9 of 10, 6 of 6"
same,survivor count,"T/C endpoint: median survival time, dose: 400.0 mg/kg/injection, schedule: Q01DX009 (ip), vehicle: saline with Tween-80",0 of 6
same,survivor count,"T/C endpoint: median survival time, dose: 400.0 mg/kg/injection, schedule: Q01DX009 (ip), vehicle: saline",5 of 10
Nc1ncnc(N)c1N=O,survivor count,[6],6 of 6
O=C(CC(O)(C(F)(F)F)C(F)(F)F)C(=O)c1ccc([N+](=O)[O-])cc1,survivor count,"T/C endpoint: mean survival time, dose: 400.0 mg/kg/injection, schedule: Q01DX009 (ip), vehicle: saline with Tween-80",2 of 6
C=CC[n+]1ccc2ccccc2c1,survivor count,[2],0 of 6
same,survivor count,[3],0 of 6
CCOC(=O)C(O)(CC)CCC(C)C (configuration not stated),survivor count,[6],0 of 6
O=S(=O)(O)CS(=O)(=O)O.[Ag],survivor count,"T/C endpoint: mean survival time, dose: 100.0 mg/kg/injection, schedule: Q01DX001 (ip), vehicle: saline",1 of 6
same,survivor count,"T/C endpoint: mean survival time, dose: 200.0 mg/kg/injection, schedule: Q01DX001 (ip), vehicle: saline",0 of 6
same,survivor count,[7],1 of 6
COc1ccc(-c2nc(N)c3ncn(C4OC(CO)C(O)C4O)c3n2)cc1 (configuration not stated),survivor count,"T/C endpoint: mean survival time, dose: 100.0 mg/kg/injection, schedule: Q01DX005 (ip), vehicle: distilled water + Tween-80",6 of 6
CN1CCOc2ccccc2OCCOCCOc2ccccc2OCC1,survivor count,[8],0 of 6
